The other results are listed elsewhere or left out.
Target: LIPE_Q05469_991_SLPPVHIVACALDPMLDDSVMLAR (UniProt Q05469)
Test: probe-labelled cysteine peptide fold change vs DMSO (competition) (log2 fold change); higher = less target engagement (more negative = stronger competition)
Conditions: THP-1, incubation time: 4 h
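Note: competitive chemoproteomic profiling in live THP-1 cells with an iodoacetamide desthiobiotin (IA-DTB) probe, comparing probe-labelled peptide intensities in compound-treated cells against DMSO-treated controls.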

Sequences of proteins named here, by UniProt entry; tags and fusion partners are left off. A change or cut given only in a name is not applied to a line headed by its entry.
UniProt Q05469: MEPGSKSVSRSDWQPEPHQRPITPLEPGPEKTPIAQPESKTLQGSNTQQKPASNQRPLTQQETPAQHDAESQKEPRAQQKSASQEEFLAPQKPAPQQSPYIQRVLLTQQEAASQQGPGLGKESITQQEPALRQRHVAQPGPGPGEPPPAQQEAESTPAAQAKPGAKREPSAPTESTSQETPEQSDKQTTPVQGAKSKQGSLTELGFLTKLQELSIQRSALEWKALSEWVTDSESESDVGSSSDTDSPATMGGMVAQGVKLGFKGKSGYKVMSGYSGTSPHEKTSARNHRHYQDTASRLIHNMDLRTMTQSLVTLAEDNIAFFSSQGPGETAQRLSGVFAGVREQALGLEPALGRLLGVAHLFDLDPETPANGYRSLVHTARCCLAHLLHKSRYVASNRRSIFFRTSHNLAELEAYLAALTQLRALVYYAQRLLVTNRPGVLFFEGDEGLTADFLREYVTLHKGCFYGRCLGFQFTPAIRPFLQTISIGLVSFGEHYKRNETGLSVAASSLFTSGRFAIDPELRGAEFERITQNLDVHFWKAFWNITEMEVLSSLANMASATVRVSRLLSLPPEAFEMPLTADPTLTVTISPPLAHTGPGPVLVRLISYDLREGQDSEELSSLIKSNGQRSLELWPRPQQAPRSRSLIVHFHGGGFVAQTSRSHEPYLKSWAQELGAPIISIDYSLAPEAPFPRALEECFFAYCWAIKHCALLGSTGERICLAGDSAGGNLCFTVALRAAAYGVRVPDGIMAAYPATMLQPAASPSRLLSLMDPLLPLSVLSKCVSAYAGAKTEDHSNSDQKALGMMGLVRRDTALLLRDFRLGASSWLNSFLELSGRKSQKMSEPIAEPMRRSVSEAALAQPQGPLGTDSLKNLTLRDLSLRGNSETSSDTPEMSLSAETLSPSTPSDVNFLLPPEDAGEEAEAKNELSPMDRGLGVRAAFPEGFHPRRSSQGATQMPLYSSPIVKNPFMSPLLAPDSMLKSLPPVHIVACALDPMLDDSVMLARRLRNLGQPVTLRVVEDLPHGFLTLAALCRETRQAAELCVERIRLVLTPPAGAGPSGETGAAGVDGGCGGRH

CC1Cc2ccccc2N1C(=O)C1CCCN(C(=O)CCl)C1 (mixture of isomers) [TRIM25 ligand 11 (diastereomer mixture)]
probe-labelled cysteine peptide fold change (10 µM): 0.261 | probe-labelled cysteine peptide fold change (50 µM): 0.166

— the supplement of paper PMC12067093, “Discovery and optimisation of a covalent ligand for TRIM25 and its application to targeted protein ubiquitination” (Chemical Science, 2025)
